Experimental data published in PMC4581157.

The chains behind the UniProt entries cited, without tags or fusion partners. Where a name states a change or a piece, a line headed by the entry shows the natural chain unless it says otherwise.
UniProt A1Z6I7: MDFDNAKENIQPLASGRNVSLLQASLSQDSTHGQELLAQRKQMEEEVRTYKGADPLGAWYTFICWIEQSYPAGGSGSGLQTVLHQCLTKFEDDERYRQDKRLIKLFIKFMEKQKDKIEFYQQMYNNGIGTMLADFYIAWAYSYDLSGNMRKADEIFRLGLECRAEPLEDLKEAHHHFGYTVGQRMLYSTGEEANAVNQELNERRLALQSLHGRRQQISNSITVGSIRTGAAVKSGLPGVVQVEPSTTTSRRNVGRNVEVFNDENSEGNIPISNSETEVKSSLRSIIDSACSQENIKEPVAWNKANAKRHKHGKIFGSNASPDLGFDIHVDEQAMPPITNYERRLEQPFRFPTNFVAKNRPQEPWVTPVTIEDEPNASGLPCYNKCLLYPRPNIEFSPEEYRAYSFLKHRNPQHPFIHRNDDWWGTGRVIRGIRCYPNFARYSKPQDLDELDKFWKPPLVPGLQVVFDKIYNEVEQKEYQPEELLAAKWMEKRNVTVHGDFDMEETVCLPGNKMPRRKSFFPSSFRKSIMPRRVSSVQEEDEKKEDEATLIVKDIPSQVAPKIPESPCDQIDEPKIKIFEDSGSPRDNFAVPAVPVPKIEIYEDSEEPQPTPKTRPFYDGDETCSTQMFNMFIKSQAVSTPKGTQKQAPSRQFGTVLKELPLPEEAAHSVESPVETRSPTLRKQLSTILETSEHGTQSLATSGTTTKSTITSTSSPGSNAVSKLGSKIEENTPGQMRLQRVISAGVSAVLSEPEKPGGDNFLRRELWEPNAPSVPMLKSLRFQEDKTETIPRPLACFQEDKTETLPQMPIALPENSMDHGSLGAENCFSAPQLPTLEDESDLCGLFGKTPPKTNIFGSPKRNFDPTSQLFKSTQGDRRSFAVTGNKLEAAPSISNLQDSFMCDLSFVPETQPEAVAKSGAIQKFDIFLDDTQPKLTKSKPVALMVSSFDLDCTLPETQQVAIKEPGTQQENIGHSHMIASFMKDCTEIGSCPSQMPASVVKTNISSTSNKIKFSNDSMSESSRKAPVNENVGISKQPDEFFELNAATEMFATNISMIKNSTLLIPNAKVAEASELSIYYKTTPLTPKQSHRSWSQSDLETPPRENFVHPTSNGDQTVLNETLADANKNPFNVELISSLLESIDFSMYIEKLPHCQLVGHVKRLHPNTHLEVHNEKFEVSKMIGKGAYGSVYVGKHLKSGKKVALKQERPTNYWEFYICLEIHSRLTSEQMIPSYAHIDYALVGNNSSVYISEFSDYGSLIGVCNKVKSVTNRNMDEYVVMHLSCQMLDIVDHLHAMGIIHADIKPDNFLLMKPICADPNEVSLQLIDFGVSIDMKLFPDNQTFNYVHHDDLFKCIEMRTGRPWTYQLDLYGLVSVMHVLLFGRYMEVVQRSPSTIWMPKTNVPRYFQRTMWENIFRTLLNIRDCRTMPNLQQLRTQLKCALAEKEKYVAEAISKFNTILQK

Target: T1, Fzy protein (Drosophila melanogaster) (UniProt Q24044)
T1 sequence: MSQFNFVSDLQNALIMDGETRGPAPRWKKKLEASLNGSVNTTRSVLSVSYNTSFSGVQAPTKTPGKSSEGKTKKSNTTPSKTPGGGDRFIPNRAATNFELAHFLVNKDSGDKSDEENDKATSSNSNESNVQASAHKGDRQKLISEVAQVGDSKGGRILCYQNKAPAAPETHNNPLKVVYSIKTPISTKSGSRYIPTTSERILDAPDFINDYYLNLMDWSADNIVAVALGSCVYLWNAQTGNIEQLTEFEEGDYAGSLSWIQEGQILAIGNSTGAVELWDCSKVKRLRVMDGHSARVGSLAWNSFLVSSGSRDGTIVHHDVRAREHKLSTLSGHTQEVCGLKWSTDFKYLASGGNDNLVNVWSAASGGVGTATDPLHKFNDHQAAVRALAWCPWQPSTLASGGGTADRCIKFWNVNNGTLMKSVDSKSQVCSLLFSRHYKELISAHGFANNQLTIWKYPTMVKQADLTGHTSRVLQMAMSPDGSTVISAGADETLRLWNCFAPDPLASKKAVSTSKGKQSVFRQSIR
Assay: affinity purification with mass spectrometry; affinity purification of protein complexes from Drosophila cultured cells or Drosophila embryos; Mascot search against the FlyBase protein database, significance threshold p < 0.05, ions score cut-off 30

Row | binding | Substance
1 | binds | BubR1 (from UniProt A1Z6I7)
2 | binds | Spc105R (Drosophila melanogaster)

No constants are given. Whether binding was seen depends on the method and setting. Binding seen in cells or lysates may run through a third protein. A yes stands for co-enrichment or nearness to the bait. Other partners may have been found.
